Measurements taken from patent US4835251A, “Method of chain combination” (Genetech, Inc., priority 1986, dated 1989).
Part of at least one peptide drawing is inferred or uncertain, most often the ends.

Test system: interpubic ligament
Test: murine pubic symphysis assay (MPS)
Type: in vivo, mice
Details: for MPS dose responses, potency compared between relaxins: FIG. 3
Protocol: The human relaxin and human relaxin analogs were tested in bioassays. The murine pubic symphysis assay (MPS) uses Charles River albino CFW female mice weighing 18-20 g., J. St. Louis, Can. J. Physiol. Pharmacol. 59, 507-512 (1981). Estradiol priming solution is 5 μg estradiol 17β-cyclopentylpropionate in 0.1 ml peanut oil. Human relaxin dose solutions are at concentrations of 2.5, 5.0, 10.0, 20.0, 40.0, and 80.0 μg/ml in a 1% water solution of benzopurpurine 4B. When mice have been housed for at least six days in quarantine and weigh 18-20 g, each one is given a subcutaneous injection of estradiol priming solution. Exactly seven days later mice are injected subcutaneously with 0.2 ml of the appropriate human relaxin dose solution. Between 18 and 20 hours after the human relaxin injection the mice were sacrificed by cervical dislocation. The interpubic ligament is exposed and measured with a micrometer.
The rat uterine contractility in vitro bioassay measures human relaxin ability to relax smooth muscle in the presence of electrically stimulated contractions, J. St. Louis, (1981) Can. J. Physiol. Pharmacol. 59, 507-512. The murine pubic symphysis ligament in vivo bioassay measures relaxin's remodeling effect on connective tissue, Steinetz, B. G. et al. (1960) Endocrinology 67, 102. […] The MPS does responses indicate equipotence for natural human relaxin and H2(B2-33 A24) B Lys^4 B Ala^25, FIG. 3. […] All of the human analogues and natural sequence human relaxin are essentially indistinguishable in the MPS bioassay.

Compound | MPS dose responses, potency compared between relaxins | biological activity in the MPS assay (biological dose response comparison) (estradiol-primed female mice, subcutaneous injection, ligament measured 18-20 hours later) | MPS dose response curve, slope / parallelism relative to the other relaxins (mouse, in vivo)
CC[C@H](C)[C@@H]1NC(=O)[C@H](C)NC(=O)[C@H]([C@@H](C)CC)NC(=O)[C@H](CCC(N)=O)NC(=O)[C@H](C)NC(=O)[C@H](CCCNC(=N)N)NC(=O)[C@H](C(C)C)NC(=O)[C@H](CC(C)C)NC(=O)[C@H](CCC(=O)O)NC(=O)[C@H](CCCNC(=N)N)NC(=O)CNC(=O)[C@@H](NC(=O)[C@H](CC(C)C)NC(=O)[C@H](CCCCN)NC(=O)[C@@H](NC(=O)[C@@H](NC(=O)[C@H](CCC(=O)O)NC(=O)[C@H](CCC(=O)O)NC(=O)[C@H](CCCCN)NC(=O)[C@H](Cc2c[nH]c3ccccc23)NC(=O)[C@@H](N)CO)C(C)C)[C@@H](C)CC)CSSC[C@@H]2NC(=O)[C@@H](NC(=O)[C@H](CCCCN)NC(=O)[C@H](CC(N)=O)NC(=O)[C@H](C)NC(=O)[C@H](CC(C)C)NC(=O)[C@H](C)NC(=O)[C@H](CO)NC(=O)[C@H](Cc3ccc(O)cc3)NC(=O)[C@H](CC(C)C)NC(=O)[C@@H](N)CCC(N)=O)CSSC[C@H](NC(=O)CNC(=O)[C@H](C(C)C)NC(=O)[C@H](Cc3c[nH]cn3)NC2=O)C(=O)N[C@@H]([C@@H](C)O)C(=O)N[C@@H](CCCCN)C(=O)N[C@@H](CCCNC(=N)N)C(=O)N[C@@H](CO)C(=O)N[C@@H](CC(C)C)C(=O)N[C@@H](C)C(=O)N[C@@H](CCCNC(=N)N)C(=O)N[C@@H](Cc2ccccc2)C(=O)N[C@H](C(=O)O)CSSC[C@@H](C(=O)NCC(=O)N[C@@H](C)C(=O)N[C@@H](CO)C(=O)N[C@H](C(=O)N[C@@H](Cc2c[nH]c3ccccc23)C(=O)N[C@@H](CO)C(=O)N[C@@H](CCCCN)C(=O)N[C@@H](CCCNC(=N)N)C(=O)N[C@@H](CO)C(=O)N[C@@H](CC(C)C)C(=O)O)[C@@H](C)O)NC1=O [H2(B2-33 A24) B Lys^4 B Ala^25] | equipotence | – | –
CC[C@H](C)[C@@H]1NC(=O)[C@H](C)NC(=O)[C@H]([C@@H](C)CC)NC(=O)[C@H](CCC(N)=O)NC(=O)[C@H](C)NC(=O)[C@H](CCCNC(=N)N)NC(=O)[C@H](C(C)C)NC(=O)[C@H](CC(C)C)NC(=O)[C@H](CCC(=O)O)NC(=O)[C@H](CCCNC(=N)N)NC(=O)CNC(=O)[C@@H](NC(=O)[C@H](CC(C)C)NC(=O)[C@H](CCCCN)NC(=O)[C@@H](NC(=O)[C@@H](NC(=O)[C@H](CCC(=O)O)NC(=O)[C@H](CCC(=O)O)NC(=O)[C@H](CCCCN)NC(=O)[C@H](Cc2c[nH]c3ccccc23)NC(=O)[C@H](CO)NC(=O)[C@@H](N)CC(=O)O)C(C)C)[C@@H](C)CC)CSSC[C@@H]2NC(=O)[C@@H](NC(=O)[C@H](CCCCN)NC(=O)[C@H](CC(N)=O)NC(=O)[C@H](C)NC(=O)[C@H](CC(C)C)NC(=O)[C@H](C)NC(=O)[C@H](CO)NC(=O)[C@H](Cc3ccc(O)cc3)NC(=O)[C@H](CC(C)C)NC(=O)[C@@H](N)CCC(N)=O)CSSC[C@H](NC(=O)CNC(=O)[C@H](C(C)C)NC(=O)[C@H](Cc3c[nH]cn3)NC2=O)C(=O)N[C@@H]([C@@H](C)O)C(=O)N[C@@H](CCCCN)C(=O)N[C@@H](CCCNC(=N)N)C(=O)N[C@@H](CO)C(=O)N[C@@H](CC(C)C)C(=O)N[C@@H](C)C(=O)N[C@@H](CCCNC(=N)N)C(=O)N[C@@H](Cc2ccccc2)C(=O)N[C@H](C(=O)O)CSSC[C@@H](C(=O)NCC(=O)N[C@@H](C)C(=O)N[C@@H](CO)C(=O)N[C@H](C(=O)N[C@@H](Cc2c[nH]c3ccccc23)C(=O)N[C@@H](CO)C(=O)N[C@@H](CCCCN)C(=O)N[C@@H](CCCNC(=N)N)C(=O)N[C@@H](CO)C(=O)N[C@@H](CC(C)C)C(=O)O)[C@@H](C)O)NC1=O [H2(B33 A24) B Lys^4 B Ala^25] | – | biological activity | –
CC[C@H](C)[C@@H]1NC(=O)[C@H](C)NC(=O)[C@H]([C@@H](C)CC)NC(=O)[C@H](CCC(N)=O)NC(=O)[C@H](C)NC(=O)[C@H](CCCNC(=N)N)NC(=O)[C@H](C(C)C)NC(=O)[C@H](CC(C)C)NC(=O)[C@H](CCC(=O)O)NC(=O)[C@H](CCCNC(=N)N)NC(=O)CNC(=O)[C@@H](NC(=O)[C@H](CC(C)C)NC(=O)[C@H](CCCCN)NC(=O)[C@@H](NC(=O)[C@@H](NC(=O)[C@H](CCC(=O)O)NC(=O)[C@H](CCC(=O)O)NC(=O)[C@H](CCSC)NC(=O)[C@H](Cc2c[nH]c3ccccc23)NC(=O)[C@H](CO)NC(=O)[C@@H](N)CC(=O)O)C(C)C)[C@@H](C)CC)CSSC[C@@H]2NC(=O)[C@@H](NC(=O)[C@H](CCCCN)NC(=O)[C@H](CC(N)=O)NC(=O)[C@H](C)NC(=O)[C@H](CC(C)C)NC(=O)[C@H](C)NC(=O)[C@H](CO)NC(=O)[C@H](Cc3ccc(O)cc3)NC(=O)[C@H](CC(C)C)NC(=O)[C@@H](N)CCC(N)=O)CSSC[C@H](NC(=O)CNC(=O)[C@H](C(C)C)NC(=O)[C@H](Cc3c[nH]cn3)NC2=O)C(=O)N[C@@H]([C@@H](C)O)C(=O)N[C@@H](CCCCN)C(=O)N[C@@H](CCCNC(=N)N)C(=O)N[C@@H](CO)C(=O)N[C@@H](CC(C)C)C(=O)N[C@@H](C)C(=O)N[C@@H](CCCNC(=N)N)C(=O)N[C@@H](Cc2ccccc2)C(=O)N[C@H](C(=O)O)CSSC[C@@H](C(=O)NCC(=O)N[C@@H](CCSC)C(=O)N[C@@H](CO)C(=O)N[C@H](C(=O)N[C@@H](Cc2c[nH]c3ccccc23)C(=O)N[C@@H](CO)C(=O)N[C@@H](CCCCN)C(=O)N[C@@H](CCCNC(=N)N)C(=O)N[C@@H](CO)C(=O)N[C@@H](CC(C)C)C(=O)O)[C@@H](C)O)NC1=O [H2(B33 A24)] | equipotence | – | may differ
